Among the data in PMC9321536 are binding values, retold here.

Holding throughout (assay): co-IP; lysates of HEK 293T cells transfected with myc-tagged wild-type or mutated SUCNR1; precleared, SUCNR1 precipitated (methods: anti-SUCNR1 antibody and protein A/G-Sepharose at 4 °C; legend of Figure 5B: anti-myc antibody); washes with 0.7 M NaCl, no SDS; Western blot for RAB2, RAB11, COX-2
On the technique in general: In western blotting, separated proteins are transferred to a membrane and probed.

Experiment [1] deals with T1, SUCNR1 N168A (myc-tagged) (human) (UniProt Q9BXA5).
T1 sequence (chain, N-glycosylated at N8): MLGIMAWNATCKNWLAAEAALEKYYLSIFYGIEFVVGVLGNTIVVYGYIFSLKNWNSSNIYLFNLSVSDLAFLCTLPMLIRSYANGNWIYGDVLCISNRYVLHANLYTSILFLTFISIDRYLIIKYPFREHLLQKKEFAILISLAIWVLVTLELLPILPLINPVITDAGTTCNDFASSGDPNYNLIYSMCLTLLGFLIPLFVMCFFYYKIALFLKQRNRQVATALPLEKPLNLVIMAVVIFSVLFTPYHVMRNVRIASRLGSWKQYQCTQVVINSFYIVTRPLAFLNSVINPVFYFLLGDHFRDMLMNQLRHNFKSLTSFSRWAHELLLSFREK

In experiment [2] the target is T2, wild-type SUCNR1 (myc-tagged) (human) (UniProt Q9BXA5).
T2 sequence (chain, N-glycosylated at N8 and N168): T1 sequence (chain, N-glycosylated at N8) with A168N

The target in experiment [3] is T3, SUCNR1 N8A (myc-tagged) (human) (UniProt Q9BXA5).
T3 sequence (chain, N-glycosylated at N168): T1 sequence (chain, N-glycosylated at N8) with N8A, A168N

Residue numbers refer to the chain shown, from its start. No constants are given. Whether binding was seen depends on the method and setting. In cells and extracts the contact can be indirect. A result given as binding can be weak or reduced; the word gives no strength. Where a sequence is shown, tags or fusion partners need not be part of it.

As for RAB11 (human (endogenous in HEK 293T)), the binding entry in experiment [1] is listed as “no binding”; in experiment [2] it was “no binding”; in experiment [3], “binds”.

As for RAB2 (human (endogenous in HEK 293T)), the binding result in experiment [1] is recorded as “binds”; in experiment [2], “binds”; in experiment [3], “binds weakly”.
